Structures were worked out from names or drawings and are uncertain.
Biological target: 5HTR2B (Homo sapiens, UniProt P41595)
Assay: 5HTR2B antagonist activity, calcium mobilization assay in human Maverick/293 cells (serotonin as agonist)
Assay type: cell-based
Conditions: read-out: Ca assay IC50, intracellular calcium, emission 525 nm

Chains of the proteins cited; added tags and fusions are not shown.
UniProt P41595, whole entry: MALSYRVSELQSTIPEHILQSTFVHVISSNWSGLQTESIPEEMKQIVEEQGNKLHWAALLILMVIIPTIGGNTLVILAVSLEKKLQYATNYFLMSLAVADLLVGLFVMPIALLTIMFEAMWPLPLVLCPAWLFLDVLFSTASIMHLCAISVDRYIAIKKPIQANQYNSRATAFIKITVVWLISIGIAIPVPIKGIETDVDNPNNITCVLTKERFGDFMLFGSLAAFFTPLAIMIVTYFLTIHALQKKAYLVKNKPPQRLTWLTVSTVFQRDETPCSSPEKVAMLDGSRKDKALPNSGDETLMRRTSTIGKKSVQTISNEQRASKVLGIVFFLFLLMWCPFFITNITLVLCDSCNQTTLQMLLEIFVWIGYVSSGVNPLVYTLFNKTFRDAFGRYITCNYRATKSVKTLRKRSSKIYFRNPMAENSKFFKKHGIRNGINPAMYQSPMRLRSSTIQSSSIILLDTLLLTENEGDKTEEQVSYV

COc1ccc(S(=O)(=O)N[C@H](C)C(N)=O)cc1C(=O)Nc1ccccc1Cl
IC50: 0.2 nM
